Data as given in PubChem BioAssay AID1671195 (Yale University, 2021).

- Purpose: 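Genes whose knockdown alters LDL uptake in liver cancer cells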 (primary screen)
- Cell system: human Huh7 hepatoma cells
- Reagent: siRNA pool against human genes, 18 nM
- Timing: about 2 to 2.5 days of knockdown, then 8 h LDL uptake
- Treatment: DiI-labelled LDL at 30 µg/ml for 8 h, in lipoprotein-deficient serum medium
- Measurement: 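Fluorescent LDL signal imaged in cells, scaled to the plate median, robust z-score for each replicate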
- Direction: robust z-score: higher = more LDL uptake after knockdown
- Hit rule: 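a gene counts as active if at least two replicate z-scores exceed ±2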
The whole screen tested about 22,000 reagents; below is a random part of them. In the full data, about 1,510 (6.9%) are marked active. 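Active includes knockdowns raising or lowering LDL uptake; positive z-scores mean more uptake, negative mean less.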 A number with no mark means an inactive call.

LUC7L2 scored robust z-score, replicate 1 = -1.43; robust z-score, replicate 2 = -1.11; robust z-score, replicate 3 = -0.237. After knock-down of SLC24A3, the record shows robust z-score, replicate 1 = -0.308; robust z-score, replicate 2 = -0.893; robust z-score, replicate 3 = -0.494. Depletion of LOC439999 (retired record) gave: robust z-score, replicate 1 = -0.936; robust z-score, replicate 2 = -0.196; robust z-score, replicate 3 = -0.444. With knock-down of MYB, the screen gave robust z-score, replicate 1 = -0.686; robust z-score, replicate 2 = -0.585; robust z-score, replicate 3 = -0.475. For PHACTR2, the values are robust z-score, replicate 1 = -0.0828; robust z-score, replicate 2 = 1.35; robust z-score, replicate 3 = 0.0904. Knock-down of GNPTAB resulted in: robust z-score, replicate 1 = 0.851; robust z-score, replicate 2 = 1.23; robust z-score, replicate 3 = 1.79.

Knock-down of SLU7 resulted in: robust z-score, replicate 1 = -0.533; robust z-score, replicate 2 = -0.768; robust z-score, replicate 3 = -1.14. For CA7, the entry reads robust z-score, replicate 1 = 0.0725; robust z-score, replicate 2 = -0.37; robust z-score, replicate 3 = 0.143. SEPTIN7P11 showed robust z-score, replicate 1 = 0.81; robust z-score, replicate 2 = 0.914; robust z-score, replicate 3 = 1.14. RAB27A gave robust z-score, replicate 1 = 1.41; robust z-score, replicate 2 = 0.762; robust z-score, replicate 3 = 0.845. For EIF4E1B, the entry reads robust z-score, replicate 1 = -0.662; robust z-score, replicate 2 = -0.61; robust z-score, replicate 3 = -0.72. LAG3 scored robust z-score, replicate 1 = 0.866; robust z-score, replicate 2 = 1.17; robust z-score, replicate 3 = 1.77.

SKP1 showed robust z-score, replicate 1 = 0.211; robust z-score, replicate 2 = 0.432; robust z-score, replicate 3 = -0.763. After knock-down of CDK5, the screen gave robust z-score, replicate 1 = 0.486; robust z-score, replicate 2 = 0.717; robust z-score, replicate 3 = 0.444. PRED4 (retired record) showed robust z-score, replicate 1 = 2.4; robust z-score, replicate 2 = 1.11; robust z-score, replicate 3 = 1.55. ACSM1 showed robust z-score, replicate 1 = 1.11; robust z-score, replicate 2 = -0.765; robust z-score, replicate 3 = -0.426.

Copied from the entries so far, 2 entries:
GNPTAB | robust z-score, replicate 1 = 0.851; robust z-score, replicate 2 = 1.23; robust z-score, replicate 3 = 1.79
SLU7 | robust z-score, replicate 1 = -0.533; robust z-score, replicate 2 = -0.768; robust z-score, replicate 3 = -1.14
